Drawing on patent US20250011421A1 (GUANGDONG ANNPO BIOTECHNOLOGY, published 2025), this text covers binding for three molecules.

No constants are given. Whether binding was seen depends on the method and setting. Some binding calls cover weakened binding; strength is not graded here.

Assay [1] addresses T1, hTIGIT on the surface of 293F-hTIGIT-short #1B1 cells (human) (UniProt Q495A1).
T1 sequence (looked up): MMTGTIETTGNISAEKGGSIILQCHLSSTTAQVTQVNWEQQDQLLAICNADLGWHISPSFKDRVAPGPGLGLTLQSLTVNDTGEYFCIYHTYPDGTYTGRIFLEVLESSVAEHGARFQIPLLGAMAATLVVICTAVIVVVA
The assay is described as follows: flow cytometry on 293F-hTIGIT-short #1B1 cells. Background: In flow cytometry, cells or beads pass a laser one at a time.

The target in assay [2] is T1, hTIGIT on the surface of 293F-hTIGIT-short #1B1 cells (human). The assay can be described thus: flow cytometry on cells expressing hTIGIT, method as in Example 3.

B1: hTIGIT mouse-derived antibody m51C1 (antibody, V domains shown)
VH: QVQLQQSGAELVKPGASVKLSCKASGYTFTEYFIHWIKQKSGQGLEWIGWFYPGSGSIKYNERFKDKATLTADKSSSTVYMELSRLTSEDSAVYFCARHEMRYGNYVLDYWGQGTTLTVSS
VL: QAVVTQESALTTSPGETVTLTCRSSTGAVTTRNYANWVQEKPDHLFTGLIGGTNNRVPGVPARFSGSLIGDKAALTITGAQTEDEAIYFCGLWYSNHLVFGGGTKLTVLG
notes: Mouse monoclonal antibody from a hybridoma
Take B1: the binding entry in assay [1] is on record as “binds”.

B2: hTIGIT humanized antibody h51C1 (antibody, human IgG1, V domains shown)
VH: QVQLVQSGAEVKKPGASVKVSCKASGYTFTEYFIHWVRQAPGQGLEWIGWFYPGSGSIKYNERFKDRVTLTADTSISTAYMELSRLRSDDTAVYYCARHEMRYGNYVLDYWGQGTTVTVSS
VL: QAVVTQEPSLTVSPGGTVTLTCRSSTGAVTTRNYANWVQQKPGQAPRGLIGGTNNRVPGVPARFSGSLLGGKAALTLSGAQPEDEAEYYCGLWYSNHLVFGGGTKLTVLG
notes: also called 51C1-H2L2
As for B2, the binding result in assay [2] is “binds”.

B3: hTIGIT humanized antibody h60H5 (antibody, human IgG1, V domains shown)
VH: QVQLVQSGAEVKKPGASVKVSCKTSGYTFTEYTMHWVRQAPGQRLEWIGGINPNNGGTSYNQKFQGRVTITVDTSASTAYMELSSLRSEDTAVYYCARSGNWDYAMDYWGQGTTVTVSS
VL: DIQMTQSPSSMSASVGDRVTITCKASQHVSTAVVWYQQKPGKAPKLLIYSASYRYTGVPDRFSGSGSGTDFTFTISSLQPEDIATYYCQQHYITPWTFGGGTKLEIKR
notes: also called 60H5-H2L1
Turning to B3, in assay [2], the binding result is listed as “binds”.
